Assay results from US20080294071A1, “Assay Method” (priority 2004, published 2008).

Tested on: rats
Experiment: Locomotor activity test
Assay type: in vivo, Male Sprague Dawley rats
Conditions: 30 min post dose
Description: Male Sprague Dawley rats 200-300 g (Charles River, Margate, U.K.) were housed in group of five per cage under a 12 h light/dark cycle with food and water available ad libitum. Each experiment was carried out with groups of at minimum 7 rats. All procedures in this study were performed in accordance with the Home Office Animals (Scientific Procedures) Act 1986 and accordingly with our Project License, after the experiment, animals were sacrificed by schedule 1 method.
The spontaneous locomotor activity of rats in a novel environment was monitored for 30 min in a 35×20 cm Perspex chamber. The cage was equipped with two series photocells located at 2 and 15 cm above the floor (San Diego Instruments, CA, USA). To measure drug-induced decrease locomotion such as morphine and gabapentin, at a pre-defined time post drug administration, each animal was placed in the centre of the cage. To measure drug-induced increase in locomotion such as phencyclidine (PCP) rats were placed in the cage at least 30 min before recording. total activity (ambulation and rearing) was monitored every 5 min for 30 min.
In the locomotor activity task, total counts are the sum of horizontal and vertical movements (photo beam breaks) in 30 minutes recording. For PCP vertical and horizontal activity are analysed separately. Data were expressed as the arithmetic mean ±SEM and analysed by ANOVA. In the beam walking test, the time to cross the beam (seconds) and the number of foot slips were expressed as mean ±SEM and analysed by ANOVA and Mann Whitney U test, respectively.

Compound: CN1CC[C@]23c4c5ccc(O)c4O[C@H]2[C@@H](O)C=C[C@H]3[C@H]1C5.O=S(=O)(O)O [Morphine sulphate]
- reduction of exploratory behaviour with respect to controls activity (3 mg/kg SC): up to 67%
- reduction of movement vs spontaneous activity of vehicle-treated rats (10 mg/kg SC): up to 93%
- spontaneous activity, effect of dose (1, 3 and 10 mg/kg SC, naive rats, p<0.01): dose dependent decrease
- MED in locomotor activity test (SC): 3 mg/kg
